{"source": "patent US6610535B1", "about": "“Progenitor cells and methods and uses related thereto” (ES Cell International Pte Ltd., priority 2000, dated 2003)", "test_system": "duct monolayer", "assay": "Induction of non-adherent cells (NACs, floating progenitor cells) from confluent pancreatic duct monolayer culture", "type": "cell-based, rat", "note": "For at least one compound, name, drawing or mass did not settle the structure."}
{"smiles": "C[C@@H]1C[C@H]2[C@@H]3CCC4=CC(=O)C=C[C@]4(C)[C@@]3(F)[C@@H](O)C[C@]2(C)[C@@]1(O)C(=O)CO", "note": "[Dexamethasone]", "values": [{"measurement": "induction of differentiation of duct monolayer", "setting": "duct monolayer culture", "value": "found to induce differentiation"}, {"measurement": "effect on NAC / floating progenitor cell generation", "setting": "factor added to day 5 duct monolayer, 48 hours", "value": "neither dexamethasone nor EGF alone had significant effects"}]}
